# Results: publication PMC4836378 (Journal of medicinal chemistry, 2016)
# Tests used:
# RARs in HepG2 cells = assay: Induction of RARβ and CYP26A1 mRNA in HepG2 cells; type: cell-based, human
# [1] = system: atRA metabolism in HepG2 cells; settings: HepG2, 100 nM atRA + 1 μM compound versus 100 nM atRA alone, 24 hour
smiles,measurement,setting,value
"CC1(C)CCC(C)(C)c2cc(C3(c4ccc(CCC(=O)O)cc4)SCCS3)ccc21 [Compound 30, 3-{4-[2-(5,5,8,8-Tetramethyl-5,6,7,8-tetrahydronaphthalen-2-yl)-1,3-dithiolan-2-yl]phenyl}propanoic acid]",Activation of RARs (induction of CYP26A1 and RARβ mRNA),RARs in HepG2 cells,none of the three compounds resulted in activation
same,Magnitude of induction of RARβ and CYP26A1 mRNA compared to atRA treatment alone,RARs in HepG2 cells,significantly increased
same,Increase in atRA concentration in the media,[1],approximately 9 fold
